Assay results as given in the RNAGym collection of RNA variant scans (doi:10.1126/science.aae0568).
Variants at the floor of the assay are shown more often than the library holds them.

B1: tRNA (parent)
chain: GUUCCGUUGGCGUAAUGGUAACGCGUCUCCCUCCUAAGGAGAAGACUGCGGGUUCGAGUCCCGUACGGAACG

Variants of: B1
Test: yeast fitness relative to wild type (ratio to wild type); higher = fitter; tRNA-Arg(CCU), competitive growth, 37 C, YPD
Procedure, shortened: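 Genotype frequency changes were the basis for Darwinian fitness relative to wild type. The frequencies came from 100-nucleotide paired-end sequencing of gene amplicons from the start population and each end population of pooled yeast strains with tRNA-Arg(CCU) gene variants at the native locus. Competition ran in YPD at 37°C for 24 hours in six replicates, genotypes needed ≥ 100 starting reads, and estimates < 0.5 were set to 0.5.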

| Variant | yeast fitness |
| --- | --- |
| U19C C22A U32A A37U A45C G50A U53C | ≤ 0.5 |
| C22A C30A | 0.686 |
| U3G C22G U32G A43G | ≤ 0.5 |
| C5G A21C U26A C34G G58C C60A | ≤ 0.5 |
| U3A C4U U7A C29U U32G A43U G44C C61U | ≤ 0.5 |
| U3C U13A C22G C31G C61A | ≤ 0.5 |
| C34G U47A C62A | ≤ 0.5 |
| C27U A37U G56A | ≤ 0.5 |
| U7G C27U C61A G63A | ≤ 0.5 |
| C24A C30U C55U | ≤ 0.5 |
| C27U C34U A36C A37C | ≤ 0.5 |
| C4G G23C C29U C31G | ≤ 0.5 |
| C24U C33G U47G C66U | ≤ 0.5 |
| A20C G39A U53A | ≤ 0.5 |
| U7A G10A G58A | ≤ 0.5 |
| G6A G38C G67U | ≤ 0.5 |
| C5U C22U A37C A42U | ≤ 0.5 |
| C4U G23U C24G C29U A37G A65G | ≤ 0.5 |
| G10C A14U C34A C62U | ≤ 0.5 |
| U3A A14C A20C U64A | ≤ 0.5 |
| U7C U13A U16A U54A | ≤ 0.5 |
| U7A C30G A37G A43G | ≤ 0.5 |
| C22A C29U G67U | ≤ 0.5 |
| C34A A36U A45U | ≤ 0.5 |

| Variant | yeast fitness |
| --- | --- |
| C24U C30A G50A | 0.587 |
| G56U A65G | 0.615 |
| G10A A36C A70U | ≤ 0.5 |
| C4A C22G U32C G51A | ≤ 0.5 |
| U13A C27A A36C A42U U64G | ≤ 0.5 |
| A15C A20G G68C | ≤ 0.5 |
| A21U A45U U53A C62U G68C | ≤ 0.5 |
| U2G C31U G48C G67C | 0.702 |
| U28A A57C C61G | ≤ 0.5 |
| C31U U35A G51C G68A | ≤ 0.5 |
| C4G C11G A70G | ≤ 0.5 |
| G63C U64C | 0.969 |
| C33A C34A U35C A36C G39C U47A U59C | ≤ 0.5 |
| C24G C33U C55A A65C | ≤ 0.5 |
| U2C C27A A45C C49A A70G | ≤ 0.5 |
| A14U A42G | 0.529 |
| G10A U13C C55G U59C C60U G67U | ≤ 0.5 |
| C4G G6A C11U C29A G63A | ≤ 0.5 |
| C33G G41C C55U G56C G58A G63C A65U | ≤ 0.5 |
| U2C A15G U35G A36C A40U A70C | ≤ 0.5 |
| U3G G18A G68C | ≤ 0.5 |
| U35C A42U G67A | ≤ 0.5 |
| G10A G39A A65C C66G | 0.556 |
| A40C | 1 |

| Variant | yeast fitness |
| --- | --- |
| C5G G17C A70G | ≤ 0.5 |
| G12C U16C A42C | ≤ 0.5 |
| U28A U32C A43C A57C | ≤ 0.5 |
| U26A C31A A42G C49U C55G | ≤ 0.5 |
| C4G C55G U64C C66A | ≤ 0.5 |
| C11U A15C C27A G39C G48C C66U | ≤ 0.5 |
| C4U A20G U28C C31U G50C C55U C60G G63A C66U | 0.508 |
| U7A U13G | ≤ 0.5 |
| C30G U32C G39C C46G | ≤ 0.5 |
| A20U G68U | 0.792 |
| C4A U8C U26C C27G C33G A37U G41A A57G C62G | ≤ 0.5 |
| C4G G23A A40C U53C | ≤ 0.5 |
| A15C C46U A69U | 0.814 |
| A37G G41C A43U A57U | ≤ 0.5 |
| U13C C29A | 0.618 |
| C4G C29U C30G G39C C60A | ≤ 0.5 |
| G10C G39A A69U | ≤ 0.5 |
| U28G G41C C66A A70C | ≤ 0.5 |
| C4U C5A A36U G39C C60A G68A | ≤ 0.5 |
| C5A A21U G39C C55U | ≤ 0.5 |
| A14G C24G C31U C55A A70G | ≤ 0.5 |
| C11G G18C U26C C31G C46U C55U | ≤ 0.5 |
| U2A C4U U8G C31A G44C A65G | ≤ 0.5 |
| G50A U59A | 0.831 |

| Variant | yeast fitness |
| --- | --- |
| G6A A45C G58A | 0.519 |
| C5G A14U G68C | ≤ 0.5 |
| C22U C30G C61U A65C C66U | ≤ 0.5 |
| G6C C31A A43C U64C | ≤ 0.5 |
| A21U C30G C55A A69U | ≤ 0.5 |
| C30U C33G U47C A65C | ≤ 0.5 |
| U16C C49U C62U G67A | ≤ 0.5 |
| U8A A42U C62G | ≤ 0.5 |
| A14U C46A G51C A57U | ≤ 0.5 |
| U28C U32A A37C A43C C49U | ≤ 0.5 |
| U19G C30U C49G G52A | ≤ 0.5 |
| U7A C27U G52C G68C | ≤ 0.5 |
| G56U G63A A65G | ≤ 0.5 |
| A14U A20C A21G | ≤ 0.5 |
| A21C C24U C29U A69U | ≤ 0.5 |
| G6A C29A G67C | ≤ 0.5 |
| C4A G23A C33G | 0.655 |
| C5G A14C G23C G38A G58C | ≤ 0.5 |
| C24G A37G A43U C62G | 0.77 |
| A14C G18A C33U G41C | ≤ 0.5 |
| C4A A15U A42C C46U C66G | ≤ 0.5 |
| C4G G6A C24G G39C | ≤ 0.5 |
| G6A G12A A20G C22G U26A G48C G68A A70C | ≤ 0.5 |
| C4G C22G A37G | ≤ 0.5 |

| Variant | yeast fitness |
| --- | --- |
| G6A G10C C29G U35G C61U | ≤ 0.5 |
| G9A G56A A70C | 1.03 |
| C30G G52C G63C | ≤ 0.5 |
| U16C A20C A36U | ≤ 0.5 |
| C34A U53A U54G | ≤ 0.5 |
| C5G C24A A42U A57C U64A | ≤ 0.5 |
| A20C C30A C55A | 0.571 |
| G17A C24G C27G A69U | ≤ 0.5 |
| U13A C61U G67U | ≤ 0.5 |
| G17A C22A U64A | ≤ 0.5 |
| U7A G12C C34U C66G | ≤ 0.5 |
| A14C A45G | 0.611 |
| G17A U47C C66U A69U | ≤ 0.5 |
| G38A C49U G51C | ≤ 0.5 |
| C11U A43U C49A C60U | ≤ 0.5 |
| C33A A36U C61U | ≤ 0.5 |
| G6U A20C G38C A43U A45G | ≤ 0.5 |
| C34U A37G A40U | ≤ 0.5 |
| C11U C30U U54A | ≤ 0.5 |
| U13C A20U G39C A43C C49A U53A | ≤ 0.5 |
| G18C C22G G56A A65U | ≤ 0.5 |
| C5A C22A C66U | ≤ 0.5 |
| C4U C5A U13A C31U C34U A70C | ≤ 0.5 |
| U16G G56C G67A | ≤ 0.5 |

| Variant | yeast fitness |
| --- | --- |
| U19C A37C A40G G52C U59C A65U | ≤ 0.5 |
| G6C A37U C49U | ≤ 0.5 |
| G17C C24A A36U G41C | ≤ 0.5 |
| C31A C34A A40C C46G | ≤ 0.5 |
| G23C C34G | ≤ 0.5 |
| U19A G25A A37U C55U | ≤ 0.5 |
| C5G U47A A57C U64A | ≤ 0.5 |
| U3A A36C G51C A69U | ≤ 0.5 |
| C27U A37G G48C U59C C62A | ≤ 0.5 |
| C33G C34U C66G | ≤ 0.5 |
| U13G C61A C66A | ≤ 0.5 |
| C11G U16G U35A G41C U64C | ≤ 0.5 |
| U7G A21U C29A C55A | 0.604 |
| C11U G18C C34U A42C | ≤ 0.5 |
| C4G G23C G25A | ≤ 0.5 |
| C5G G10A A37C G56A C66U | ≤ 0.5 |
| U19G C49G U59C A69C | ≤ 0.5 |
| U3C G10C A14C | ≤ 0.5 |
| C11A G17A C33U A70C | ≤ 0.5 |
| U8A A15U C29G G41A C49G A57G | ≤ 0.5 |
| G18A G23C C61A | ≤ 0.5 |
| U2G C30A C31U A45C C55G | ≤ 0.5 |
| G18C A20C C22U C31U C61G C62G | ≤ 0.5 |
| C27A G38C | 0.609 |

| Variant | yeast fitness |
| --- | --- |
| G6A C11A U19A G56A A69U | ≤ 0.5 |
| U28G A57U G63A | 0.874 |
| C27U A57G A69G | ≤ 0.5 |
| A37U C49U U53C | ≤ 0.5 |
| C4U C11G C29U | ≤ 0.5 |
| A15U A21G C29U G44C C55A G56C | ≤ 0.5 |
| G41C C49A A70C | ≤ 0.5 |
| A20U C22A C61A C62G G68A | ≤ 0.5 |
| G6A A20C A36C U47A G48C U54G A65C | ≤ 0.5 |
| U13C C22A A42G C49U | ≤ 0.5 |
| G9C C29U A36U | ≤ 0.5 |
| A20U C24U G51C U54A | ≤ 0.5 |
| C4G G23C C24G A70G | ≤ 0.5 |
| G9A A21G A40G U53A A70G | ≤ 0.5 |
| U13A C24A A45C | ≤ 0.5 |
| C11A U16C G18C A36G A45C A57C G68C | ≤ 0.5 |
| G12C A20U C30U C62A A70C | ≤ 0.5 |
| U3A G17A C22U A43G G68C | ≤ 0.5 |
| C24G G41C G68C | 0.592 |
| C5A C11G A21G A40U C55U U59A | ≤ 0.5 |
| A15G C34G A42C | ≤ 0.5 |
| G25C U28G A42C C61U | ≤ 0.5 |
| C27U U32C C46G | 0.765 |
